Laboratory results taken from patent publication US8633180B2, “Organic compounds” (Intra-Cellular Therapies, Inc., priority 2008, dated 2014).
Some results were stated once for a whole list of compounds, not compound by compound.

Biological target: PDE1B
Experiment: Measurement of PDE1B inhibition in vitro using IMAP phosphodiesterase assay kit
Format: biochemical
Conditions: IMAP fluorescence polarization assay, bovine brain phosphodiesterase, FL-GMP substrate; sentence also mentions PDE1A activities; read-out: IC50 values (PDE1 inhibitory activity)

SMILES	IC50 [nM]
CN1Cc2c(nn(Cc3ccc(-c4ccccn4)cc3)c2Nc2ccccc2)N2C1=N[C@@H]1CCC[C@@H]12 [Example 1, (6aR,9aS)-2,4,5,6a,7,8,9,9a-octahydro-5-methyl-3-(phenylamino)-2-((4-Pyridin-2-yl)-benzyl)-cyclopent[4,5]imidazo[1,2-a]pyrazolo[4,3-e]pyrimidine]	< 250
CN1C(=S)c2c(nn(Cc3ccc(-c4ccccn4)cc3)c2Nc2ccccc2)N2C1=N[C@@H]1CCC[C@@H]12 [Example 2, (6aR,9aS)-5,6a,7,8,9,9a-hexahydro-5-methyl-3-(phenylamino)-2-((4-Pyridin-2-yl)-benzyl)-cyclopent[4,5]imidazo[1,2-a]pyrazolo[4,3-e]pyrimidin-4(2H)-thione]	< 250
